{
  "source": "paper PMC10360347",
  "target": "T1, sirtuin 1 (SIRT1) (mouse (endogenous in hippocampal tissue)) (UniProt Q923E4)",
  "T1 sequence": "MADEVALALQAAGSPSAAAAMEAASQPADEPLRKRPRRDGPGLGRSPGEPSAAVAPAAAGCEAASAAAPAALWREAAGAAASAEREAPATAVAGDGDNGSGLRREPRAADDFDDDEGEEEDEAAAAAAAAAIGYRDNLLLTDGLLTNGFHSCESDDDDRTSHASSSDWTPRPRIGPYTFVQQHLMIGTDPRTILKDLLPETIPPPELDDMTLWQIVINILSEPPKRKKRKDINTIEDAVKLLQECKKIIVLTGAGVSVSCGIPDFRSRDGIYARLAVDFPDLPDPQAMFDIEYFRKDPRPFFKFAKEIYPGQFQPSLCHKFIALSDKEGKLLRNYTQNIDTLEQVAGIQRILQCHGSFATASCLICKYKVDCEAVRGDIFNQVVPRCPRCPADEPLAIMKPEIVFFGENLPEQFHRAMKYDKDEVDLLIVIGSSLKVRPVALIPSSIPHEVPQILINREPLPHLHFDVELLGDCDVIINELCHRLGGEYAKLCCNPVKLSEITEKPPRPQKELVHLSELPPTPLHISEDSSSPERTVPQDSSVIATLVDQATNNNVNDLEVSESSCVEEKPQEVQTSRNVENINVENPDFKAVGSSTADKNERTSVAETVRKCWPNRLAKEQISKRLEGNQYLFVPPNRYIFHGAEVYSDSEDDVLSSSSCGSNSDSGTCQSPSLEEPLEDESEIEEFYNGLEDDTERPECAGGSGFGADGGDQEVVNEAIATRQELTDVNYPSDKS",
  "experiment": "co-IP; lysate of hippocampal tissue of WT mice; Dynabeads Protein G IP kit; 3 ug of anti-Fgr (Santa Cruz) and anti-SIRT1 (Abcam); detection by Western blotting",
  "note": "No constants are given. Whether binding was seen depends on the method and setting. Binding seen in cells or lysates may run through a third protein. Some binding calls cover weakened binding; strength is not graded here.",
  "data": [
    {"substance": "Fgr kinase (from UniProt P14234 1-517) (enzyme)", "values": [
      {"measurement": "binding", "value": "binds"}
    ]}
  ]
}
